This is an account of results in patent publication USRE38425E1, “Semicarbazones having CNS activity and pharmaceutical preparations containing same” (University of Saskatchewan Technologies, Inc., priority 1995, dated 2004).

Several values for one entry are separate records, joined by “and”; a condition that tells them apart may be missing. Equal values may be shown once. Read-outs that look alike come from different tables or passages of the source. Some results are limits rather than exact numbers.

Series [1] deals with rats. Kind of series: MES screen after oral administration to rats. The conditions noted are these: for MES screen slope: slope belonging to the MES ED50.
The subject of series [2] is mice. Kind of series: MES screen after intraperitoneal injection in mice. The class given is in vivo. To be noted: for MES screen slope: slope belonging to the MES ED50.
Series [3] has as its system rats. Kind of series: neurotoxicity screen after oral administration to rats. The conditions noted are these: slope belonging to the TD50.
For series [4], the system named is mice. The conditions noted are these: intraperitoneal injection in mice; slope belonging to the TD50.
Series [5] relates to rats. The experiment in a line: MES screen after intraperitoneal injection into rats. The class given is in vivo.
In series [6] the test system is rats. The conditions noted are these: oral administration to rats; data taken from reference 1; cited from earlier work.
Series [7] has as its system mice. To be noted: intraperitoneal injection in mice; for PI acPTZ (protection index TD50/ED50): TD50 / scPTZ ED50; for acPTZ screen slope: slope belonging to the scPTZ ED50.

As to `NC(=O)N1c2ccccc2C=Cc2ccccc21` [Carbamazepine, reference compound], the MES screen slope in the series on rats [1] is 3.84; with mice [2] it was 20.8. Moreover, the neurotoxicity screen slope in the series with rats [3] turned out to be 11.4; in the series with mice [4] it was 7.98.

Turning to `NC(=O)NN=Cc1ccc(Oc2ccc(F)cc2)cc1` [Compound 4b, 4-(4′-fluorophenoxy)benzaldehyde semicarbazone], the “PI (protection index TD50/ED50)” value is above 315 in the series with rats [1] (TD50 / MES ED50); “greater than 315” in the series with rats [1] (TD50 / MES ED50, listed as 4-(4′-fluorophenoxy) benzaldehyde semicarbazone); above 315 in the series on rats [6]. In addition, the MES screen slope in the series on rats [1] is recorded as 3.17; in the series on mice [2], 8.28; in the series with rats [6] it was 3.17. Besides, the “slope (SE) in the MES screen” value in the series with rats [5] (4 h) is 2.65(0.76). The compound also gave a PI with rats [5] (TD50/ED50) of 33.8. Besides, the “PI MES (protection index TD50/ED50)” value in the series with mice [2] turned out to be 8.40. This compound also showed a neurotoxicity screen slope in the series on mice [4] of 3.69.

As for `Cc1ccc(Oc2ccc(C=NNC(N)=O)cc2)cc1` [Compound 4f], in the series with mice [7], the “PI acPTZ (protection index TD50/ED50)” value was 2.30 and the acPTZ screen slope stood at 1.87. The “PI (protection index TD50/ED50)” value with rats [1] (TD50 / MES ED50) was above 145.57. The compound further registered an MES screen slope with rats [1] of 4.121. For the same compound, in the series on mice [2], the “PI MES (protection index TD50/ED50)” value stood at 13.91 and the MES screen slope came out at 5.59. The compound also came in with a neurotoxicity screen slope in the series on mice [4] of 4.29.

Turning to `Cc1ccccc1Oc1ccc(C=NNC(N)=O)cc1` [Compound 5n], the “PI (protection index TD50/ED50)” value with rats [1] (TD50 / MES ED50) is listed as above 88. The compound further gave an MES screen slope in the series on rats [1] of 3.65.

Take `Cc1cccc(Oc2ccc(C=NNC(N)=O)cc2)c1` [Compound 5o]: the “PI (protection index TD50/ED50)” value in the series on rats [1] (TD50 / MES ED50) is recorded as above 162.47. The compound further gave an MES screen slope in the series with rats [1] of 7.114.

In turn, `CCc1ccc(Oc2ccc(C=NNC(N)=O)cc2)cc1` [Compound 5p] had an MES screen slope with rats [1] of 1.98.

Take `CCCc1ccc(Oc2ccc(C=NNC(N)=O)cc2)cc1` [Compound 5q]: the “PI (protection index TD50/ED50)” value with rats [1] (TD50 / MES ED50) is above 190.02. In the series with rats [1], this compound registered an MES screen slope of 3.213.

With `CCCCc1ccc(Oc2ccc(C=NNC(N)=O)cc2)cc1` [Compound 5r], in the series with mice [7], the “PI acPTZ (protection index TD50/ED50)” value came out at 1.510 and the acPTZ screen slope was found to be 11.442. Moreover, the “PI (protection index TD50/ED50)” value with rats [1] (TD50 / MES ED50) is above 100.16. The compound further returned an MES screen slope with rats [1] of 3.575. Also, in the series with mice [2], the “PI MES (protection index TD50/ED50)” value stood at 9.825 and the MES screen slope stood at 6.945. Besides, in the series on mice [4], the neurotoxicity screen slope stood at 6.467.

Turning to `CC(C)(C)c1ccc(Oc2ccc(C=NNC(N)=O)cc2)cc1` [Compound 5s], the “PI acPTZ (protection index TD50/ED50)” value in the series with mice [7] is reported as above 0.076. Further, the “PI (protection index TD50/ED50)” value in the series with rats [1] (TD50 / MES ED50) is given as above 297.24. The compound also came in with an MES screen slope with rats [1] of 4.437. In the series on mice [2], the “PI MES (protection index TD50/ED50)” value is reported as 11.934 and the MES screen slope was found to be 13.063. Moreover, in the series on mice [4], the neurotoxicity screen slope stood at 6.313.

With `CC(C)(C)CC(C)(C)c1ccc(Oc2ccc(C=NNC(N)=O)cc2)cc1` [Compound 5t], the “PI acPTZ (protection index TD50/ED50)” value in the series on mice [7] is above 0.623. In the series with mice [2], the “PI MES (protection index TD50/ED50)” value is reported as 11.048 and the MES screen slope was 10.881. This compound also showed a neurotoxicity screen slope in the series with mice [4] of 3.924.

Turning to `CCCCOc1ccc(Oc2ccc(C=NNC(N)=O)cc2)cc1` [Compound 5u], the MES screen slope in the series with rats [1] was determined as 1.327.

With `CC(=NNC(N)=O)c1ccc(Oc2ccccc2)cc1` [Compound 13a], in the series on mice [7], the “PI acPTZ (protection index TD50/ED50)” value was determined as 1.70 and the acPTZ screen slope came out at 1.54. The MES screen slope with rats [1] amounted to 3.844. For the same compound, in the series with mice [2], the “PI MES (protection index TD50/ED50)” value stood at 8.09 and the MES screen slope stood at 6.21. In the series on mice [4], this compound returned a neurotoxicity screen slope of 10.51.

Consider `CC(=NNC(N)=O)c1ccc(Oc2ccc(F)cc2)cc1` [Compound 13b], for which the “PI (protection index TD50/ED50)” value with rats [1] (TD50 / MES ED50) amounted to 32.3. The MES screen slope in the series with rats [1] was found to be 5.74; in the series on mice [2] it was 22.69. Further, in the series on mice [2], the “PI MES (protection index TD50/ED50)” value is 5.22. Besides, the neurotoxicity screen slope was 4.82 in the series on rats [3] and 45.21 in the series on mice [4].

`CC(=NNC(N)=O)c1ccc(Oc2ccc(Cl)cc2)cc1` [Compound 13c]: the “PI (protection index TD50/ED50)” value in the series with rats [1] (TD50 / MES ED50) is below 170.73. The same compound showed an MES screen slope with rats [1] of 5.774.

Turning to `CC(=NNC(N)=O)c1ccc(Oc2ccc(Br)cc2)cc1` [Compound 13d], the “PI (protection index TD50/ED50)” value with rats [1] (TD50 / MES ED50) is reported as above 328.28. In the series on rats [1], the MES screen slope is reported as 3.600.

The compound `CCC(=NNC(N)=O)c1ccc(Oc2ccccc2)cc1` [Compound 13e] gave an MES screen slope in the series on rats [1] of 3.14.

Regarding `CCC(=NNC(N)=O)c1ccc(Oc2ccc(F)cc2)cc1` [Compound 13f], in the series with mice [7], the “PI acPTZ (protection index TD50/ED50)” value came out at 2.75 and the acPTZ screen slope came to 3.34. The MES screen slope in the series with rats [1] amounted to 3.67. Further, in the series with mice [2], the “PI MES (protection index TD50/ED50)” value turned out to be 6.45 and the MES screen slope turned out to be 11.64. The neurotoxicity screen slope in the series on mice [4] is listed as 6.78.

Take `CCC(=NNC(N)=O)c1ccc(Oc2ccc(Cl)cc2)cc1` [Compound 13g]: in the series with rats [1] (TD50 / MES ED50), the “PI (protection index TD50/ED50)” value is given as above 172.81. The compound further yielded an MES screen slope with rats [1] of 2.035. In the series with mice [2], the “PI MES (protection index TD50/ED50)” value was below 9.017 and the MES screen slope turned out to be 20.278.

`CCC(=NNC(N)=O)c1ccc(Oc2ccc(Br)cc2)cc1` [Compound 13h]: the MES screen slope with rats [1] is recorded as 4.206.

With `CC(=NNC(N)=O)c1ccccc1Oc1ccc(F)cc1` [Compound 14b], the MES screen slope with rats [1] is listed as 2.287.

Regarding `NC(=O)NN=Cc1ccc(Sc2ccccc2)cc1` [Compound 15a], the “PI (protection index TD50/ED50)” value in the series on rats [1] (TD50 / MES ED50) was above 115.6. The compound further returned an MES screen slope with rats [1] of 6.02. Further, in the series on mice [2], the “PI MES (protection index TD50/ED50)” value is recorded as 11.59 and the MES screen slope worked out at 4.50. The same compound returned a neurotoxicity screen slope with mice [4] of 4.59.

For the compound `NC(=O)NN=Cc1ccc(OS(=O)(=O)c2ccccc2)cc1` [Compound 15f], in the series with mice [2], the “PI MES (protection index TD50/ED50)” value was 4.47 and the MES screen slope came to 9.52. This compound also registered a neurotoxicity screen slope with mice [4] of 17.38.

In the case of `NC(=O)NN=Cc1ccc(Sc2ccc(F)cc2)cc1` [Compound 16a], the “PI acPTZ (protection index TD50/ED50)” value in the series with mice [7] is below 0.733. In the series with rats [1] (TD50 / MES ED50), the “PI (protection index TD50/ED50)” value was 36.8. Further, the MES screen slope in the series on rats [1] is 3.92; with mice [2] it was 6.372. In addition, the “PI MES (protection index TD50/ED50)” value in the series on mice [2] stood at 7.112. Also, the neurotoxicity screen slope stood at 2.49 in the series with rats [3] and 24.001 with mice [4].

For the compound `NC(=O)NN=Cc1ccc(Sc2ccc(Cl)cc2)cc1` [Compound 16b], in the series with mice [2], the “PI MES (protection index TD50/ED50)” value amounted to 3.28 and the MES screen slope amounted to 23.21. The compound further had a neurotoxicity screen slope in the series on mice [4] of 5.90.

Consider `NC(=O)NN=Cc1ccc(Sc2ccc(Br)cc2)cc1` [Compound 16c], for which, in the series on mice [2], the “PI MES (protection index TD50/ED50)” value is reported as 5.03 and the MES screen slope turned out to be 5.92. This compound also registered a neurotoxicity screen slope in the series with mice [4] of 6.92.

Regarding `O=C1NC(=O)C(c2ccccc2)(c2ccccc2)N1` [Phenytoin, reference compound], in the series with rats [1] (TD50 / MES ED50), the “PI (protection index TD50/ED50)” value was above 21.6. In the series with rats [1], this compound gave an MES screen slope of 15.1. Besides, in the series on mice [2], the “PI MES (protection index TD50/ED50)” value was 6.52 and 6.60; the MES screen slope is 11.24 and 12.4. The neurotoxicity screen slope with mice [4] was 14.39 and 10.2.

As to `CCCC(CCC)C(=O)O` [Valproic acid, reference compound], the “PI acPTZ (protection index TD50/ED50)” value with mice [7] is listed as 2.31. This compound also displayed an acPTZ screen slope with mice [7] of 8.51. Besides, the MES screen slope with rats [1] came out at 8.13; in the series with mice [2], 7.31. Further, the neurotoxicity screen slope in the series with rats [3] stood at 6.57; in the series with mice [4], 12.3.
